For test [1], the target named is human DOCK5, full length (residues 1–1870), tags cleaved (human) (UniProt Q9H7D0). Put plainly: cryo-EM structure; purified DOCK5•ELMO1 complex mixed with a two-fold molar excess of Rac1^G15A-His10 and RhoG^Q61L-His10, pre-incubated on ice at least 1 h in 20 mM HEPES-NaOH pH 7.0, 150 mM NaCl, 1 mM MgCl2 (final 0.4 μM); bound to a lipid monolayer-coated grid [67PC/21PA/6PIP3/6DOGS-NTA Ni (mol%)]; single-particle analysis, C2, 6.98 Å (local 7.52 Å); both purified.

Amino acid sequences for entries named in this document (tags omitted). A change or cut given only in a name is not applied to a line headed by its entry. Chains listed by the source or under a name are the forms on record and can include a tag or linker.
UniProt Q9H7D0: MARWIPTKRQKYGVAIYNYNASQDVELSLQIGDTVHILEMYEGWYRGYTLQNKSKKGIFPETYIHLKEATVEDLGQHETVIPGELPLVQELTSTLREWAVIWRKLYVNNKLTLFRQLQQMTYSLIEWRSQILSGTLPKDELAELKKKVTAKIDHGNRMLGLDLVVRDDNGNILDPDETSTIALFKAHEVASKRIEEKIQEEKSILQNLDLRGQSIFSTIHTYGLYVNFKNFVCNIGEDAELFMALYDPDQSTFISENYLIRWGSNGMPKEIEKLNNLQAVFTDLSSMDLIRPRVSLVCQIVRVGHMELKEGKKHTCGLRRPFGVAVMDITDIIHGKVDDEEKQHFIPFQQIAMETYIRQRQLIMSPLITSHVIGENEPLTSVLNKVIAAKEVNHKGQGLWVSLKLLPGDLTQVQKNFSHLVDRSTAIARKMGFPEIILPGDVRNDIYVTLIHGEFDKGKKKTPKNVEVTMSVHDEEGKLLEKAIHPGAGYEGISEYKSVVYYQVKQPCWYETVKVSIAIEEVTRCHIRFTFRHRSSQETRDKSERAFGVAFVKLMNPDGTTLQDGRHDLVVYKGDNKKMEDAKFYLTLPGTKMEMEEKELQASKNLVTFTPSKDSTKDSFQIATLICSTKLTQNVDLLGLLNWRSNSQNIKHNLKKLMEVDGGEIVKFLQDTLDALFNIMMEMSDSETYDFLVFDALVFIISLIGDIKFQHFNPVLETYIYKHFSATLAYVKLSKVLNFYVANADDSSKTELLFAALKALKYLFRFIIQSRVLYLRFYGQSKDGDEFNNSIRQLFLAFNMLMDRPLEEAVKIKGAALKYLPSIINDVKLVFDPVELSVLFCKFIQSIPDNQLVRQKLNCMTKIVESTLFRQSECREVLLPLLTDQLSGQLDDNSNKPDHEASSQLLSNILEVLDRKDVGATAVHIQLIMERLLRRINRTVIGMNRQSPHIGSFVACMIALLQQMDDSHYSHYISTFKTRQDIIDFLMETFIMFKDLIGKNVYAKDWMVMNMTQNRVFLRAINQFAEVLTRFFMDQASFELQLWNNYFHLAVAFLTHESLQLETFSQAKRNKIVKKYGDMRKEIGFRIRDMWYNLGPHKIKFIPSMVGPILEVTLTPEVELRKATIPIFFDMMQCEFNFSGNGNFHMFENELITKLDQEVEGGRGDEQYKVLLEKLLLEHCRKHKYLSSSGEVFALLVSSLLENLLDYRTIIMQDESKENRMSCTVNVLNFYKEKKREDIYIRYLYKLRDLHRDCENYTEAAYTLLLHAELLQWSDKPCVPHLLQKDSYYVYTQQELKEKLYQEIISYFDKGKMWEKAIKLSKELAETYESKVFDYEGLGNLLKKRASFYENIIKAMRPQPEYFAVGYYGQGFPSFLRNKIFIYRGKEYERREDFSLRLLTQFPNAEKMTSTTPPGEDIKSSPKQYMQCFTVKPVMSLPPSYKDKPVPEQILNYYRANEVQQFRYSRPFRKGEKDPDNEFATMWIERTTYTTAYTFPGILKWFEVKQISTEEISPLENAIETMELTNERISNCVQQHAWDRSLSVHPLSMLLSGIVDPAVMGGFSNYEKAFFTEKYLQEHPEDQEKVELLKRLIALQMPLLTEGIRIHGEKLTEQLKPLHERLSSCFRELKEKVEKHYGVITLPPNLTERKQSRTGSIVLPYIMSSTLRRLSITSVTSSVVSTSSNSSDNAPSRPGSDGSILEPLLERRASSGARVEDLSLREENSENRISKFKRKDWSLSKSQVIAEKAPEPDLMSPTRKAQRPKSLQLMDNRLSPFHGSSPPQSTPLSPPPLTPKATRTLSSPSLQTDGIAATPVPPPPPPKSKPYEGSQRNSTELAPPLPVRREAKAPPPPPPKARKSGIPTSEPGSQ
UniProt Q92556: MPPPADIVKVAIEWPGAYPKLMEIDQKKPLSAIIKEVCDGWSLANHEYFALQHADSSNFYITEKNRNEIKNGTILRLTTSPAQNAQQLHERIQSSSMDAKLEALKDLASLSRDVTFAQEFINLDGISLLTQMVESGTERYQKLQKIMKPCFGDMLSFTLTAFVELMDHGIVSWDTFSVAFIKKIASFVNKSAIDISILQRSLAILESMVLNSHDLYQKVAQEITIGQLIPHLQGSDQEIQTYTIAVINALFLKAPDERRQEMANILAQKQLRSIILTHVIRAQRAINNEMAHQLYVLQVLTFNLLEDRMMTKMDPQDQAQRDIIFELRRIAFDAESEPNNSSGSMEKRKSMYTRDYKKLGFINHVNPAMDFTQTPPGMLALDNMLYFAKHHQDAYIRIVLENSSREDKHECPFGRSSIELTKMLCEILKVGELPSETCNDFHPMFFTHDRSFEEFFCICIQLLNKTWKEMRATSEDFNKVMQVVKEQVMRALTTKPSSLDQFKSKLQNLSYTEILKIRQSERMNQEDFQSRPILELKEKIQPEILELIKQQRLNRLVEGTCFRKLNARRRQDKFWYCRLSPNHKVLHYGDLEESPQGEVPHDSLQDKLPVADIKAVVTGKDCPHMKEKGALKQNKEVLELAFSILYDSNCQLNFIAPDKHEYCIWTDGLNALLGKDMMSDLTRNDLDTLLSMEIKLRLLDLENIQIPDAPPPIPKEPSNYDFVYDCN
human ELMO1CTD VL1 mutant (R563A/R568A/R569A/R570A/K573A), N-terminal FLAG tag kept (Q92556, form named): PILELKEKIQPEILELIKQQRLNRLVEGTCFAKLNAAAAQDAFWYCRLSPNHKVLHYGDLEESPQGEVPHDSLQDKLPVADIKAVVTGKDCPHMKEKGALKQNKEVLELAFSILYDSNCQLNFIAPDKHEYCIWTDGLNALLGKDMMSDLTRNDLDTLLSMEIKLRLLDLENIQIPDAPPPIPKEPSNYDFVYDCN
human ELMO1CTD β3/β4 mutant (K584A/K607A), N-terminal FLAG tag kept (Q92556, form named): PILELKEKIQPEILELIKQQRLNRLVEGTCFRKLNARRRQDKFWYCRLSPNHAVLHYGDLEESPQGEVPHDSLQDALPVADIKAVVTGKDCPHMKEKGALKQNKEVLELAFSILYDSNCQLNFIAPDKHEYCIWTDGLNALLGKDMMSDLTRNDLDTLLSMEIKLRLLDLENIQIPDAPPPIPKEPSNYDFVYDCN

The target of test [2] is human DOCK5 wild type with N-terminal FLAG and SBP tags kept (of the DOCK5•ELMO1CTD complex for the GEF assay) (human) (UniProt Q9H7D0). Put plainly: co-purification (affinity + SEC); FLAG-SBP-DOCK5 and FLAG-ELMO1CTD (wild type or mutant) co-expressed in FreeStyle 293-F cells; complex purified on Streptavidin Sepharose beads and by SEC (Superose 6; 20 mM HEPES-NaOH pH 8.0, 300 mM NaCl, 1 mM TCEP), tags not cut off. A general note: In gel filtration, larger molecules generally elute earlier.

Test [3] has as its target human DOCK5 hinge mutant (D1214A/E1215A) with N-terminal FLAG and SBP tags kept (human) (UniProt Q9H7D0). The description is as above.

Drawing on article PMC12615776, this text covers binding for four substances.

These are yes or no findings as the source states them, for the method shown. Some entries that bind do so weakly or less than the wild type.

For “human ELMO1, full length (residues 1–727), tag cleaved (from UniProt Q92556 1-727)”, the binding result in test [1] is “binds”. Turning to “human ELMO1CTD VL1 mutant (R563A/R568A/R569A/R570A/K573A), N-terminal FLAG tag kept (from UniProt Q92556 532-727) (domain or fragment)”, the binding result in test [2] is given as “binds”. Take “human ELMO1CTD wild type (residues 532–727), N-terminal FLAG tag kept (of the DOCK5•ELMO1CTD complex for the GEF assay) (from UniProt Q92556 532-727) (domain or fragment)”: the binding entry in test [3] and in test [2] was “binds” in each case. “human ELMO1CTD β3/β4 mutant (K584A/K607A), N-terminal FLAG tag kept (from UniProt Q92556 532-727) (domain or fragment)”: the binding entry in test [3] and in test [2] was “binds” each time.
